From publication PMC3775806
These are yes or no findings as the source states them, for the method shown. In cells and extracts the contact can be indirect.

Biological target: HA-Lia5p (Tetrahymena thermophila)
Assay: co-IP; anti-HA immunoprecipitation from lysates of conjugating HA-LIA5 cells; IP and supernatant analysed by SDS-PAGE and western blot with anti-HA, anti-Pdd1 and anti-Pdd3; controls: untransformed cells (Mock1) and rabbit IgG only (Mock2); performed as in ref. 35

B1: Pdd1p (protein, UniProt Q94996 1-499)
chain: MFTVKSLQQFQAKKAINISIKKMSQKKSLKQKRKQDYSSDTEEEEEDQYEVEKILDSRFNPKTKQKEYLVKWENWPIEDSTWEPYEHLSNVKEIVQAFEKKQKANVMPQPTGPITRVNAQKDPQKKNRLSLNSSISKSLPQEEEIQTSKEDSKKQAVKKFQPASRRKSISSQSDSDLQAEEVPQQPESKKDKNDGAFEEPNNADADETELVFEEIVDKRILDGQTEYLIRFQNVSQPQWVDVGQLIAIKDDVIAYEDKIAAQSQLNKTKNLKENAKHSSQQQQSENNNLETEEVEEDKDSKKRSLLANSKRPTAKRSQPFNQDEEKEKSVTQPTSNLGSKGQSQQVEKEQATNSQTQQPQTAHRSGSRLSQIQSNANQVTQQAQQLSNTNNSSSTSLEVSSKMPSQMSQKRRPIELTEIQQGDFKTDNVDKIEIQGDFNDIMTSRFEVFWKIRQDNVTPASQVYSASYLRRYEPQVLIDFLLQHSNQSQLRQANQQLTH
binding: no binding
